Drawing on article PMC6155126, this text covers binding for two substances.

Protein sequences, listed by entry. Tags and fused reporters are not part of them.
UniProt Q9BUH6: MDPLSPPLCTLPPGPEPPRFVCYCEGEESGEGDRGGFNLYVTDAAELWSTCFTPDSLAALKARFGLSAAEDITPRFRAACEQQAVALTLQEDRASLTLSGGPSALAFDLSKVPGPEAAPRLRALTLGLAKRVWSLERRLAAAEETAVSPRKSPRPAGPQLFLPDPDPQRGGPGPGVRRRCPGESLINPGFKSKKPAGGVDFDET

Results are given in words; binding and its absence hold for the method and conditions named. In cells and extracts the contact can be indirect. Some results given as binding are weak or reduced against the parent protein; the word gives no strength.

One test addresses FLAG-PAXX (human) (UniProt Q9BUH6). Briefly: co-IP; anti-FLAG M2 agarose IP of the FLAG-tagged bait from detergent-soluble nuclear (nucleoplasmic) or benzonase-treated soluble chromatin extracts of stably or transiently transfected HEK293/HEK293F cells (FLAG-PAXX also in U2OS); elution with 3X FLAG peptide; immunoblot.
For test [1], the target named is PAXX (endogenous) (human (endogenous in HEK293F)) (UniProt Q9BUH6). Briefly: co-IP; endogenous proteins; HEK293F soluble nuclear, nucleoplasmic or soluble chromatin extracts; IP with anti-Pol λ, anti-PAXX, anti-XLF or anti-XRCC4 (rIgG or mIgG as control); cells untreated or 0-60 min after 10 Gy X-ray; immunoblot.
Test [2] addresses FLAG-PAXX (overexpressed in U2OS cells) (human) (UniProt Q9BUH6). Briefly: co-IP; anti-FLAG M2 agarose IP of the FLAG-tagged bait from detergent-soluble nuclear (nucleoplasmic) or benzonase-treated soluble chromatin extracts of stably or transiently transfected HEK293/HEK293F cells (FLAG-PAXX also in U2OS); elution with 3X FLAG peptide; immunoblot.

As to “DNA polymerase λ (endogenous) (from UniProt Q9UGP5 1-575) (enzyme)”, the binding result (in the test with FLAG-PAXX (human); in test [1]) was “binds” each time. Regarding “Pol λ (in U2OS cells) (from UniProt Q9UGP5 1-575) (enzyme)”, in test [2], the binding result is recorded as “binds”.
